Results on 80 substances are retold here after the supplement of paper PMC5949888.

Most values lie at the floor of the assay. Slopes are relative: functional sequences can read slightly below zero.

This data set deals with Saccharomyces cerevisiae PS128 hsf1 delta, HSF1(1-493) fusion. The data set is described as follows: growth estimate (transactivation domain function in HSF1 fusion, heat-shock survival) (a.u. (slope of normalised read count over time)); higher = stronger growth at 37°C, i.e. more transactivation activity. As to conditions: library: random library.
Turning to RGVNAG, the growth estimate was below -0.25.

For the substance RLH, the growth estimate was below -0.25.

Regarding PEHLCRSTRGPHSACNAIIE, the growth estimate was below -0.25.

On to GSSIQLLKL, for which the growth estimate was below -0.25.

RDG: the growth estimate was below -0.25.

As for RLLGRLRSLSPSKRGGKGTG, the growth estimate was below -0.25.

GKPVRPVLHPAGGRGVS: the growth estimate is -0.243.

For the substance PTTVCCWGPPR, the growth estimate is below -0.25.

For the substance SDRTARASSVTHPPNILLCF, the growth estimate was below -0.25.

On to KCVVS, for which the growth estimate is below -0.25.

In the case of VLRAPCHFVWPIMEYWAASR, the growth estimate was below -0.25.

On to ITISRSSQFALNTRHRQIPA, for which the growth estimate was below -0.25.

Turning to VRVSADTTKGRVRWPRSSS, the growth estimate is below -0.25.

Regarding PLEFPHRTGTGSTKTRRLRP, the growth estimate is below -0.25.

On to SSWISSARLAVV, for which the growth estimate was below -0.25.

Turning to VRSSVPVYSQYLESSPRGLM, the growth estimate is below -0.25.

Consider CHTSNTRDPGCENGVPLRTT, for which the growth estimate is below -0.25.

SRGESPLQSVTTVSWTRDLD: the growth estimate was below -0.25.

In the case of CPPAP, the growth estimate is below -0.25.

Consider VGSVRFCLFSLRVAHRAFCC, for which the growth estimate was below -0.25.

On to WEGIPPVSETINRKFLRREA, for which the growth estimate was below -0.25.

For the substance GMTSAPGDAACVVRKGPNIW, the growth estimate is below -0.25.

On to KHWSRDRGEVRKCIRNAEGL, for which the growth estimate was below -0.25.

SGYCFCEVKNFDLGQNCKMG: the growth estimate was below -0.25.

For PRSW, the growth estimate was below -0.25.

Consider LRPAALPDTNRPTALPAARS, for which the growth estimate was below -0.25.

For the substance IAGGNIFN, the growth estimate is below -0.25.

Consider SSQISLYPSIHSGIYPFFHV, for which the growth estimate was below -0.25.

RTAVRVGGAALRLFFNLTQG: the growth estimate was below -0.25.

In the case of PYWGVAAT, the growth estimate was below -0.25.

In the case of EGSGLDVCLATAIGRAYWGW, the growth estimate was below -0.25.

With TKVPGRDSTPL, the growth estimate is below -0.25.

As for YERSGSPC, the growth estimate was below -0.25.

Regarding GPCVVALQWPR, the growth estimate was below -0.25.

For TTAATAGARIPSA, the growth estimate was below -0.25.

In the case of ASGLLNRRDANAQ, the growth estimate was below -0.25.

On to ASWCSDDPELEAEFSLLVRW, for which the growth estimate was -0.121.

In the case of YYM, the growth estimate is below -0.25.

In the case of SDPDRRKGRESTALERPIIP, the growth estimate was below -0.25.

As to TVPRVEEHDSVHVER, the growth estimate was below -0.25.

Turning to IRDQNRSRKLWSSRADLEHG, the growth estimate is below -0.25.

Turning to CVLTVDWIQSGPLMSNLSYV, the growth estimate is below -0.25.

With QDEERPGD, the growth estimate is below -0.25.

In the case of VCTRYVRGGSKHQLQHHRSN, the growth estimate is below -0.25.

Consider LRGQSDCRFTRVKVLQRQLF, for which the growth estimate was below -0.25.

Take RNISLEDHRCAS: the growth estimate was below -0.25.

Turning to GVVSLLRVCACGGGSRVKET, the growth estimate was below -0.25.

In the case of GRVI, the growth estimate is below -0.25.

For ITGEASPSRLMSVERMCGWS, the growth estimate was below -0.25.

Turning to GGGHLGVFGSLTGNFFMGFR, the growth estimate was below -0.25.

For the substance IPCKSAVLWYRDRRASGDHA, the growth estimate was below -0.25.

As for HVGGVSDIRLGVPLVIGLQC, the growth estimate is below -0.25.

In the case of DIRTSYSQRPTREELFDSDS, the growth estimate is below -0.25.

Regarding VRIRFHRSLSGSSRNTVVTT, the growth estimate is below -0.25.

Turning to IKVY, the growth estimate was below -0.25.

As for HAVLRGERSELPQEVRYARR, the growth estimate was below -0.25.

For the substance VGNDRCARMCLIGPGFHDTN, the growth estimate is below -0.25.

Regarding VRKSGSTAL, the growth estimate is below -0.25.

Consider YCGSYENLLTRFVFSSAFFR, for which the growth estimate was below -0.25.

For LGTVHEIDV, the growth estimate was below -0.25.

On to KAVVSRSGNSIFGQYLGPCY, for which the growth estimate is below -0.25.

Take INDVGGWAYL: the growth estimate was -0.198.

As to LEWLHRDLGAACPGSSGIAV, the growth estimate was below -0.25.

On to TDIPMCGNRGPT, for which the growth estimate was below -0.25.

For SIAVARMVCNFVADRSPPHN, the growth estimate is below -0.25.

Turning to RPLF, the growth estimate was below -0.25.

In the case of SRSRNRGGLTSGCARDGDDP, the growth estimate is below -0.25.

Take KYQ: the growth estimate was below -0.25.

Regarding DVGIKPMFTVWSALALRQHK, the growth estimate is below -0.25.

Turning to TSDSHANQNLLSSI, the growth estimate is below -0.25.

As to FRRECCFCVMIEILVLGRAP, the growth estimate is below -0.25.

As for QDSALLL, the growth estimate is below -0.25.

Regarding TKILA, the growth estimate is below -0.25.

With CKGSGQPAACSTQGATGVHF, the growth estimate was below -0.25.

Regarding LTERMRRFKIRL, the growth estimate is below -0.25.

With KHGGLRLICISMGSFSQIDA, the growth estimate is 0.146.

As to GDMWAWVSTARNQRRFPNDV, the growth estimate is below -0.25.

As for LNFLTYKDLQR, the growth estimate is below -0.25.

As to FWKATLIPYQRENASPQPTR, the growth estimate was below -0.25.

Take GCTVFRLSSFPVSGRRACRS: the growth estimate was below -0.25.
